# From the supplement of paper PMC11732987, “Enantioselective OTUD7B fragment discovery through chemoproteomics screening and high-throughput optimisation” (Communications Chemistry, 2025)
# By UniProt entry, the sequences of proteins in these tests, tags left out. Where a name states a change or a piece, a line headed by the entry shows the natural chain unless it says otherwise. Residues count along the entry.
# UniProt P15170: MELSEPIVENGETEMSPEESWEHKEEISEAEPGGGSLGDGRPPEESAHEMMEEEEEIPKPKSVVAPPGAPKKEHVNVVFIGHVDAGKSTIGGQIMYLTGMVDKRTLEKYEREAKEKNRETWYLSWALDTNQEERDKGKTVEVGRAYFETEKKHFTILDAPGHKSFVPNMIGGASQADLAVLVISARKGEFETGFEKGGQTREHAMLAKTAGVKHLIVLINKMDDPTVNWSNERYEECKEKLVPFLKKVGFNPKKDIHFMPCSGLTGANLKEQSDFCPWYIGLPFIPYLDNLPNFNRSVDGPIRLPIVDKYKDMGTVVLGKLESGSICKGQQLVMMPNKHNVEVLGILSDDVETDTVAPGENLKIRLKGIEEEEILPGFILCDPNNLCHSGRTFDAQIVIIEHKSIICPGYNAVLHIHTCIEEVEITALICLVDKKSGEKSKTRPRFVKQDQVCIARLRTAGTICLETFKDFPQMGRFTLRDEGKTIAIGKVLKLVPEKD
# UniProt P49840: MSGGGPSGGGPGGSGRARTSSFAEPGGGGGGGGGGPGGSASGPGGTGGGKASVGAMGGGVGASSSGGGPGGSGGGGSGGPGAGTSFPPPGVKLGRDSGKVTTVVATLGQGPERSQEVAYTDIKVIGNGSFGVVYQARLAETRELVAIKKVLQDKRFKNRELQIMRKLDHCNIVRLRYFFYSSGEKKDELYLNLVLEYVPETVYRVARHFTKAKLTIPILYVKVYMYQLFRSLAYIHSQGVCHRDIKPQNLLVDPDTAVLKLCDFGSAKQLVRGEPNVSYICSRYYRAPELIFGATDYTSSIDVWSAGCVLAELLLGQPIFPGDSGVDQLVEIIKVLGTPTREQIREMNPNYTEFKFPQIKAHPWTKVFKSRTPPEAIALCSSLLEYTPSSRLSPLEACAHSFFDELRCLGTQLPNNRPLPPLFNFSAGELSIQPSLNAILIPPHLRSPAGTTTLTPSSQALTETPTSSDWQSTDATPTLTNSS
# UniProt P55789: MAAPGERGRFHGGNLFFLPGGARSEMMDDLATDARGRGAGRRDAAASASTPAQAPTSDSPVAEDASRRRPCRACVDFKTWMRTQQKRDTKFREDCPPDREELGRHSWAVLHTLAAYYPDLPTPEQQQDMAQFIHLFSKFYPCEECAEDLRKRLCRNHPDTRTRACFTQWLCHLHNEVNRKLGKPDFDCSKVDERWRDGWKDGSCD
# UniProt Q9NQX3, 209-243: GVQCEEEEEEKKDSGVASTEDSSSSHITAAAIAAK
# UniProt P35626: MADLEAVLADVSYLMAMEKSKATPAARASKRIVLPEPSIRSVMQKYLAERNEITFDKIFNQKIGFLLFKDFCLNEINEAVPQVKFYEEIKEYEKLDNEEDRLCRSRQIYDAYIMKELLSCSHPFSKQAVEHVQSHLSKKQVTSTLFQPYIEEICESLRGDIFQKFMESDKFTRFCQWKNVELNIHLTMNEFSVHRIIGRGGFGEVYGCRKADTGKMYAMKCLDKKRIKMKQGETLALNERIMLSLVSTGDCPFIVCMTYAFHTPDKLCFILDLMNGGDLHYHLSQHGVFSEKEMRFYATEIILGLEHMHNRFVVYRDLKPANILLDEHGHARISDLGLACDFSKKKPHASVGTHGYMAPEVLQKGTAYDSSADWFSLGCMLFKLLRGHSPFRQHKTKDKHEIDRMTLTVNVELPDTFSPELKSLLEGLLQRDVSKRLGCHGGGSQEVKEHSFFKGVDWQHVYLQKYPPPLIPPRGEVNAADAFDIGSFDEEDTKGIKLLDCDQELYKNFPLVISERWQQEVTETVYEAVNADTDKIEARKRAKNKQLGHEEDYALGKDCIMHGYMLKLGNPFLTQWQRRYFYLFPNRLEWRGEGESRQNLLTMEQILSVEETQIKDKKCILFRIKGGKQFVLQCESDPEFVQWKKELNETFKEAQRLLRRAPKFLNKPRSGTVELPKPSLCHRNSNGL
# UniProt Q92616, whole entry, looked up: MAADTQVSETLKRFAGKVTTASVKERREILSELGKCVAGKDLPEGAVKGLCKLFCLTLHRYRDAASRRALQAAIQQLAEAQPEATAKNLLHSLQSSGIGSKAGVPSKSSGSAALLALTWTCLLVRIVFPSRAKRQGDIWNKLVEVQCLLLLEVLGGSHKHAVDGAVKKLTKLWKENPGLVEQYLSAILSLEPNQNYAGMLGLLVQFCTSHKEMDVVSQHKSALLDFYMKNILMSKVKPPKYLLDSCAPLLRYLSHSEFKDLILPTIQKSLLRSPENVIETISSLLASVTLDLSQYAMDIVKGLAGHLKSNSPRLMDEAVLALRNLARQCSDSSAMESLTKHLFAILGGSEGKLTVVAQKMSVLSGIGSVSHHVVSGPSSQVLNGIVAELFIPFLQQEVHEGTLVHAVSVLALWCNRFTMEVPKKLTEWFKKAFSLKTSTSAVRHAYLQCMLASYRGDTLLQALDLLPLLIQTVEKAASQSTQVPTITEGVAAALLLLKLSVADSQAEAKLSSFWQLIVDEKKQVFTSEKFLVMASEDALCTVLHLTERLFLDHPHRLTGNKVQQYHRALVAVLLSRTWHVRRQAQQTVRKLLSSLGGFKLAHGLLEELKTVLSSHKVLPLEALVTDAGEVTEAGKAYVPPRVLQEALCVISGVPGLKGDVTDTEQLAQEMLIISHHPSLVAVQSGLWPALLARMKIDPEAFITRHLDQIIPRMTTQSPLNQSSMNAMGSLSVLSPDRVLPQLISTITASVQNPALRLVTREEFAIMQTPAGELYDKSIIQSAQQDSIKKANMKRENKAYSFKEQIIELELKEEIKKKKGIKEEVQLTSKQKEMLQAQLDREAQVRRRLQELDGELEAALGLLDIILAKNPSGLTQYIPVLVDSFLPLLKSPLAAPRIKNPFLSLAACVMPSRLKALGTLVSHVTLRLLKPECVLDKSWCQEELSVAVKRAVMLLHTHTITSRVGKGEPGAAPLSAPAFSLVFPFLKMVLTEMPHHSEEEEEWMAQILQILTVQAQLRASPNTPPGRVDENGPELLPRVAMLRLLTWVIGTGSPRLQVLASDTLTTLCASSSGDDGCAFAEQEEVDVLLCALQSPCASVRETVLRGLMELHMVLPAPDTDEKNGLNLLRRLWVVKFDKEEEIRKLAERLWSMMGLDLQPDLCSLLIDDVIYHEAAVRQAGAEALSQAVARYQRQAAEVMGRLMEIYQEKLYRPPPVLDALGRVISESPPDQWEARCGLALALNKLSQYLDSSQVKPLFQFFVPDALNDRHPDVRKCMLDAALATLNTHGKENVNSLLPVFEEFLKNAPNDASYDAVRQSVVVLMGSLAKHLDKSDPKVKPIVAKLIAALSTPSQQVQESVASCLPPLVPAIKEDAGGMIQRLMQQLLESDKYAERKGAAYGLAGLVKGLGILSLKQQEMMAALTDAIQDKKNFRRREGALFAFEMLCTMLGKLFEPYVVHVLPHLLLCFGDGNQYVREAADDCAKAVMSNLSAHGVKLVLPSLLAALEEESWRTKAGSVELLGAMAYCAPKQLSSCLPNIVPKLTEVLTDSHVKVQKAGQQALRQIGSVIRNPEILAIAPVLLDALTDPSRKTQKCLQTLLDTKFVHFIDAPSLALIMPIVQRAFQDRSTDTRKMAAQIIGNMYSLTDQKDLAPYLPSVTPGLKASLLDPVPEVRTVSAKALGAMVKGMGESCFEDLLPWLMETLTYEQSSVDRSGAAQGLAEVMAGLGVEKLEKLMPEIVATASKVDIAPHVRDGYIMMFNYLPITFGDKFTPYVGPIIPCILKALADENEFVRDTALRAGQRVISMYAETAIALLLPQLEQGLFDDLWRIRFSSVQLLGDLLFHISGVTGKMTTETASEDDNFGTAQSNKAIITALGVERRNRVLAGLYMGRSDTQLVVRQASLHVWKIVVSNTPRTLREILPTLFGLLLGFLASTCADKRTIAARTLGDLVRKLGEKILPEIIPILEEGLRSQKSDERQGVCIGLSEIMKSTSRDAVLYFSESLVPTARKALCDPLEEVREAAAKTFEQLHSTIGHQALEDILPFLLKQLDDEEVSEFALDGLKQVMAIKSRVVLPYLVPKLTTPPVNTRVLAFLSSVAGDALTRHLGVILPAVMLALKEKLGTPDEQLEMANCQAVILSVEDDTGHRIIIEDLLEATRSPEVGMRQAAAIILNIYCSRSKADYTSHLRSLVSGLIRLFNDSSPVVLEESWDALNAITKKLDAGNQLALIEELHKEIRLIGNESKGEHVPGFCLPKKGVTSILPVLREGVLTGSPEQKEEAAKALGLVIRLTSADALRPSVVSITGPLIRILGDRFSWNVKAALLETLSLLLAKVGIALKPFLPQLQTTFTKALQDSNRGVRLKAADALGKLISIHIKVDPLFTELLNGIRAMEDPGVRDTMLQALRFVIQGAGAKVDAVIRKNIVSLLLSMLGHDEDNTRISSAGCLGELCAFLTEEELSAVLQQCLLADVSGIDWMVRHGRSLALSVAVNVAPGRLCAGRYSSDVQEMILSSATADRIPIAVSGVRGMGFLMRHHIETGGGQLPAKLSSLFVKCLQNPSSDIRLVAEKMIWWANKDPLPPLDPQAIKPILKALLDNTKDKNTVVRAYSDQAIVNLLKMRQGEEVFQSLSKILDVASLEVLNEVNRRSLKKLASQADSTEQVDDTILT
# UniProt Q9NW75: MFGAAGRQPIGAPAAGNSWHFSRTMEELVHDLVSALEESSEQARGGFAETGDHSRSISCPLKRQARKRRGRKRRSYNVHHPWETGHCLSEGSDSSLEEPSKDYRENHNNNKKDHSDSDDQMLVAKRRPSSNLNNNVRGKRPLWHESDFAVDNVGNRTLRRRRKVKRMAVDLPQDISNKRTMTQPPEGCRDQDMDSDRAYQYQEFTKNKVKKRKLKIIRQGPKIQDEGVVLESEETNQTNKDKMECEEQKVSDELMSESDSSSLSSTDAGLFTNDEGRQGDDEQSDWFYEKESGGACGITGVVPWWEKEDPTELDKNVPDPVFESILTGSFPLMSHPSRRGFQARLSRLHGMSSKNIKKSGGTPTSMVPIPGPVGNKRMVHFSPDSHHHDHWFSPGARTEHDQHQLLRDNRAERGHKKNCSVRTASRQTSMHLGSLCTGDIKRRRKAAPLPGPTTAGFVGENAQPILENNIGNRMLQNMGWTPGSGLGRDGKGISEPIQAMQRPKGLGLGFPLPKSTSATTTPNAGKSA
# UniProt Q9Y2X7, 559-582: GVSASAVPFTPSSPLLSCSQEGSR
# UniProt Q9H3C7, whole entry, looked up: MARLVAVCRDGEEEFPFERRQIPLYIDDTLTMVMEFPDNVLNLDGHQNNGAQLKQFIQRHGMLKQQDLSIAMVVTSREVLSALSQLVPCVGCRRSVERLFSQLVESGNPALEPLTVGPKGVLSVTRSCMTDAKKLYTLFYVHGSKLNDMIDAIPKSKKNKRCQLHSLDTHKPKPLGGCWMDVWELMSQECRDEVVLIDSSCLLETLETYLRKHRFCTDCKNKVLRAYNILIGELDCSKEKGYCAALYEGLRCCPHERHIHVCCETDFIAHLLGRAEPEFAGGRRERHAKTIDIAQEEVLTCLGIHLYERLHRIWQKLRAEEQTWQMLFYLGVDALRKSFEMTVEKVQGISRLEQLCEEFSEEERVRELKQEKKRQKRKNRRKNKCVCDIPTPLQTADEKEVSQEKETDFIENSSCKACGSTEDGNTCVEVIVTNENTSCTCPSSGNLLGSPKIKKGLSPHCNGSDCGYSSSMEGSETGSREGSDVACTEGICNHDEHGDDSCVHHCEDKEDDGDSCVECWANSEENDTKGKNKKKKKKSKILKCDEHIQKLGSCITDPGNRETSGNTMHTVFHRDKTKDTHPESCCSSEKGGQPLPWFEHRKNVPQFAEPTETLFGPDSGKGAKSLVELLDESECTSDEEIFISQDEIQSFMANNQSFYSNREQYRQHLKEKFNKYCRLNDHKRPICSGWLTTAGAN
# UniProt P00367, 364-386: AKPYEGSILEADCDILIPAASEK
# UniProt P00367, 327-346: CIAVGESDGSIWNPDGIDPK
# UniProt Q8TAA5, 123-142: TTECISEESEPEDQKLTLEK
# UniProt P43250, 456-475: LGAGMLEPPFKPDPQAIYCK
# UniProt O15228: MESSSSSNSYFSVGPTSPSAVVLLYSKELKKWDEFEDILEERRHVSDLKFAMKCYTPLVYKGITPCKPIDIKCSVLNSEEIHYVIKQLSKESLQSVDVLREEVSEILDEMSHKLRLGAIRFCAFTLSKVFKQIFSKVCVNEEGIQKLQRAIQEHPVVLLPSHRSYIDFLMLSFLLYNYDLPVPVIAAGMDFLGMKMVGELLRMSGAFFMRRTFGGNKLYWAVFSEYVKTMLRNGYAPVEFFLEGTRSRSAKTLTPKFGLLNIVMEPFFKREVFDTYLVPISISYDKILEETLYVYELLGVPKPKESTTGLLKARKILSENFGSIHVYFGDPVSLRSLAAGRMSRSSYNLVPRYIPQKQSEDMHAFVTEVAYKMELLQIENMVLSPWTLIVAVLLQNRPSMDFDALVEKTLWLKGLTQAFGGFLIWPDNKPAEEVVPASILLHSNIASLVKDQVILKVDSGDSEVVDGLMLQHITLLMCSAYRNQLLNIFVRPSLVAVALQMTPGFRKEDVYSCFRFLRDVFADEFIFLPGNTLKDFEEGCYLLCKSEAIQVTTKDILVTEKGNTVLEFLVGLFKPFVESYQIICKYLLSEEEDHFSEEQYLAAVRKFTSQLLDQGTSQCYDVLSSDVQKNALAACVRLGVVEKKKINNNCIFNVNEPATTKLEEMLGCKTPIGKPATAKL
# This is one part of the list. The data scatter; read single values as rough.
# How the values were obtained:
# [1] = compound: ClCC(=O)N[C@@H]1CCCc2ccccc12; experiment: log2 mean competition ratio of IA-DTB cysteine labelling (DMSO/compound) (log2 ratio); higher = stronger cysteine engagement by compound; conditions: treatment time: 4 h, cell line lysate: HEK293T
# Experimental: (§1)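 IA-DTB competitive cysteine chemoproteomics in HEK293T RIPA lysate. Lysates were treated with compound 29 or 30 at 50 or 200 µM for 4 h, then IA-DTB (500 µM, 1 h), trypsin-digested, NeutrAvidin-enriched and analysed by diaPASEF. Competition ratio = intensity DMSO / intensity compound (n=4 treated, n=64 DMSO); binding: mean log2 CR ≥ 1 and p ≤ 0.05 plus QC filters. Target is the cysteine site.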
# [2] = compound: ClCC(=O)N[C@H]1CCCc2ccccc12; experiment: as above; conditions: treatment time: 4 h, cell line lysate: HEK293T
# Experimental: as §1
Target,log2 mean competition ratio ([1]; 50 µM),log2 mean competition ratio ([1]; 200 µM),log2 mean competition ratio ([2]; 50 µM),log2 mean competition ratio ([2]; 200 µM)
GCFC2 C320 (UniProt P16383),0.165,0.464,0.495,0.964
GSPT1 C237 (UniProt P15170),-0.198,0.0534,-0.288,0.091
GNL2 C336 (UniProt Q13823),0.17,0.0224,-0.148,-0.0427
GK5 C43 (UniProt Q6ZS86),0.0984,-0.00762,0.0911,0.0974
GBA2 C30 (UniProt Q9HCG7),-0.263,-0.198,0.231,-0.293
GMPS C4 (UniProt P49915),-0.334,-0.15,0.292,0.165
GNB2 C25 (UniProt P62879),0.293,-0.046,0.496,0.0604
GPBP1L1 C365 (UniProt Q9HC44),-0.191,-0.169,-0.242,-0.2
GNG4 C28,-0.0384,0.0991,-0.0623,0.329
GSK3A C262 (UniProt P49840),-0.224,-0.365,0.763,0.0525
GPRIN3 C434,-0.0251,-0.255,0.232,-0.195
GNB1L C5 (UniProt Q9BYB4),-0.157,-0.232,0.0956,0.136
GNAZ C66,-1.16,0.577,0.000578,0.211
GCC2 C889 (UniProt Q8IWJ2),-0.388,0.332,-0.164,0.246
GFER C95 (UniProt P55789),-0.468,0.231,-0.426,0.0265
GPD2 C188 (UniProt P43304),-0.0222,-0.379,-0.715,-0.291
GIT2 C149 (UniProt Q14161),-0.0855,-0.157,0.175,0.108
GPC4 C341 (UniProt O75487),-0.0748,0.0206,-0.00557,0.171
GPHN C212 (UniProt Q9NQX3),-0.31,-0.432,-0.338,-0.444
GLO1 C61 (UniProt Q04760),0.131,-0.416,-0.0729,-0.328
GMEB2 C323 (UniProt Q9UKD1),-0.31,0.224,-0.346,0.295
GRK3 C340 (UniProt P35626),-0.146,-0.105,-0.348,-0.0378
GSTCD C140 (UniProt Q8NEC7),0.699,0.241,0.505,0.187
GCAT C404 (UniProt O75600),-0.183,0.0337,-0.276,0.0746
GCN1 C246 (UniProt Q92616),0.356,-0.0295,0.117,0.0747
GNPNAT1 C113 (UniProt Q96EK6),0.196,-0.494,0.0206,-0.531

# Quoted from the listing:
# GPRIN3 C434 | log2 mean competition ratio ([1]; 50 µM): -0.0251
# GCC2 C889 (UniProt Q8IWJ2) | log2 mean competition ratio ([2]; 50 µM): -0.164
# GMEB2 C323 (UniProt Q9UKD1) | log2 mean competition ratio ([1]; 50 µM): -0.31
# GBA2 C30 (UniProt Q9HCG7) | log2 mean competition ratio ([2]; 50 µM): 0.231

# Remaining list, next part.

Target,log2 mean competition ratio ([1]; 50 µM),log2 mean competition ratio ([1]; 200 µM),log2 mean competition ratio ([2]; 50 µM),log2 mean competition ratio ([2]; 200 µM)
GPATCH2 C245 (UniProt Q9NW75),-0.2,0.0484,-0.0381,0.171
GPX4 C93 (UniProt P36969),-0.162,-0.224,0.419,-0.0174
GPC4 C423 (UniProt O75487),-0.0964,0.426,0.165,0.273
GNAI2 C66 (UniProt P04899),-0.255,0.161,-0.296,0.14
GOPC C408 (UniProt Q9HD26),0.543,0.219,0.767,0.313
GHDC C377 (UniProt Q8N2G8),0.566,0.22,-0.0245,0.0553
GNA11 C144 (UniProt P29992),-0.0209,0.0775,0.25,0.13
GIT2 C672 (UniProt Q14161),0.0442,0.0214,-0.0791,-0.0581
GNL2 C257 (UniProt Q13823),0.314,0.137,0.000593,0.0301
GCN1 C1984 (UniProt Q92616),0.0807,0.119,0.268,0.334
GSK3A C241 (UniProt P49840),0.379,-0.0684,0.282,-0.168
GRWD1 C235 (UniProt Q9BQ67),-0.118,0.291,0.0425,0.29
GRB10 C6 (UniProt Q13322),0.0645,0.00797,-0.119,-0.197
GPR50 C355,-0.03,-0.199,0.374,-0.137
GOLGA4 C1085 (UniProt Q13439),-0.0134,-0.222,0.247,-0.117
GIT1 C576 (UniProt Q9Y2X7),-0.00539,0.102,0.346,0.0653
GGNBP2 C554 (UniProt Q9H3C7),-0.206,-0.0399,-0.255,0.278
GCN1 C1535 (UniProt Q92616),-0.0188,0.251,0.0486,0.12
GMPS C530 (UniProt P49915),0.0507,-0.361,-0.0225,-0.084
GBF1 C685 (UniProt Q92538),0.156,0.251,-0.104,0.451
GPRIN1 C46 (UniProt Q7Z2K8),0.0244,0.086,0.313,0.33
GLS2 C542 (UniProt Q9UI32),0.413,0.101,0.327,0.0233
GEMIN5 C867 (UniProt Q8TEQ6),-0.101,0.292,-0.551,0.0202
GLYR1 C303 (UniProt Q49A26),-0.00409,-0.0412,-0.0634,0.0473
GLUD1 C376 (UniProt P00367),-0.011,0.543,-0.384,0.122
GBF1 C661 (UniProt Q92538),0.078,0.00579,-0.49,-0.0442

Target,log2 mean competition ratio ([1]; 50 µM),log2 mean competition ratio ([1]; 200 µM),log2 mean competition ratio ([2]; 50 µM),log2 mean competition ratio ([2]; 200 µM)
GEN1 C890 (UniProt Q17RS7),-0.35,-0.012,0.765,0.274
GPS1 C192,-0.00471,0.0229,0.0273,0.0856
GPD1L C216 (UniProt Q8N335),0.283,0.242,0.0709,0.275
GLUD1 C327 (UniProt P00367),-0.221,-0.487,0.343,-0.29
GRPEL2 C126 (UniProt Q8TAA5),-0.353,-0.0748,-0.0128,-0.22
GRK6 C474 (UniProt P43250),0.0365,0.252,-0.406,0.0357
GNPAT C650 (UniProt O15228),-0.262,-0.277,0.271,-0.351
GPR108 C104 (UniProt Q9NPR9),-0.0586,-0.254,-0.351,-0.0962
GPAT3;GPAT4 C266;(C285),0.156,0.265,-0.431,-0.00801
GSK3A C170 (UniProt P49840),0.185,-0.388,-0.118,-0.444
GREB1 C1797 (UniProt Q4ZG55),0.173,-0.533,-0.0577,-0.00728
GNPAT C66 (UniProt O15228),0.13,-0.12,-0.112,-0.19
GET4 C160 (UniProt Q7L5D6),0.0272,-0.305,-0.0496,-0.265
GMPR C186 (UniProt P36959),-0.208,-0.12,-0.211,0.0141
GNPNAT1 C128 (UniProt Q96EK6),-0.296,0.126,0.065,0.104
GCFC2 C336 (UniProt P16383),-0.0554,-0.0725,-0.236,0.0553
GNAI1 C139 (UniProt P63096),-0.0891,-0.154,0.0449,-0.0708
GPHN C26 (UniProt Q9NQX3),0.352,0.0232,0.277,0.209
GCC1 C460 (UniProt Q96CN9),0.274,-0.389,0.538,-0.192
GIGYF1 C514 (UniProt O75420),0.175,0.00737,-0.328,0.0377
GNL3 C251 (UniProt Q9BVP2),0.122,0.0996,-0.114,0.116
GCLM C72 (UniProt P48507),-0.344,0.0366,-0.501,0.0352
GFPT2 C226 (UniProt O94808),-0.19,-0.0609,0.493,0.156
GFPT1 C264 (UniProt Q06210),-0.0999,-0.12,0.0772,0.123
GNPAT C73 (UniProt O15228),0.0298,-0.237,-0.273,-0.301
